From patent US7256042B2, “Process for making hepatocytes from pluripotent stem cells” (Geron Corporation, priority 2000, dated 2007)

Tested on: hES cell derived embryoid bodies
Experiment: Comparison of potential hepatocyte differentiation agents; for Induction of hepatocyte phenotype: key: +: Causes hepatocyte differentiation and selective elimination of other cell types; −: No inductive effect; ±: Mild inductive effect; may allow growth or survival of other cell types
Type: cell-based, human
Method: The effect of sodium butyrate was compared with other potential hepatocyte differentiation agents in a similar protocol. Embryoid bodies were cultured in suspension for 4 days, and then replated on plates coated with collagenase 1. The cells were then cultured in the presence of each compound for 6 days.

CC(C)CC(=O)O [Isovaleric acid]
Induction of hepatocyte phenotype (EBs 4 days in suspension, replated on plates coated with collagenase 1, cultured with each compound for 6 days, analogs at 5 mM): ± | Effect on hepatocyte differentiation (in words) (concentration of 5 mM, 6 days): effective in causing hepatocyte differentiation
